Results taken from the supplement of paper PMC3334620.
Over roughly 33,000 sequences, “E-score (-0.5 to 0.5)” has its median near -0.0014; the highest 2% begin near 0.25. This is one part of the list.

Target: T1, Cad1 (UniProt P24813)
T1 sequence: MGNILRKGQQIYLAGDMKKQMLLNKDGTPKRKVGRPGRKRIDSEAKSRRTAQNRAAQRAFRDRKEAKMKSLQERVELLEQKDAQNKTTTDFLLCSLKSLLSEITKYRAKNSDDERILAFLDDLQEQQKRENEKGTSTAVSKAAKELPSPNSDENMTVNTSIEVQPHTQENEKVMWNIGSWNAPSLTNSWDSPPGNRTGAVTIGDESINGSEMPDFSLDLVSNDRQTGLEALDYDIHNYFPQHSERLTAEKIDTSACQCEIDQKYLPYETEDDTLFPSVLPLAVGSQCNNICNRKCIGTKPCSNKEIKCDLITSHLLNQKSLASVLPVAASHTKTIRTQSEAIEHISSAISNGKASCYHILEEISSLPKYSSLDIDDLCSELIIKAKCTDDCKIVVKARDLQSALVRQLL
Assay: PBM E-score (8-mer binding enrichment) (E-score (-0.5 to 0.5)); higher = stronger / more preferred TF binding
Details: protein concentration: 100 nM; construct: GST-full length
Method in brief: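 Yeast transcription factors, full-length or as DNA-binding domains, were expressed with a GST tag using PURExpress in vitro transcription/translation. At about 100-200 nM they were applied to universal all-10-mer Agilent arrays, double-stranded by primer extension on fresh or once-stripped slides. Fluorescent anti-GST detected bound protein, and masliner normalised the scans. E-scores for ungapped eight-base words, pooled with reverse complements, came from the Universal PBM Analysis Suite.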

| Sequence | PBM E-score |
| --- | --- |
| CAGTTTGG | -0.0251 |
| GCGTGAGC | 0.182 |
| CCTCTTTC | -0.206 |
| CATACACA | -0.13 |
| AATTAAAA | 0.129 |
| ATTCCCGA | -0.241 |
| ACGTTTAC | 0.0362 |
| CGAATGGA | -0.0243 |
| TGTTTTAA | 0.182 |
| AGACTCAA | 0.0131 |
| CTAAAACA | -0.0517 |
| CCTCGGTC | -0.248 |
| CATTAGAG | -0.0966 |
| CTTAGAAC | 0.11 |
| AATGAATG | 0.117 |
| GGGGCGGA | -0.173 |
| TACACTCA | 0.0522 |
| CATCCGGA | 0.0199 |
| ACCCACCA | -0.0533 |
| ATGTCGAA | -0.00122 |
| GCAATGCA | -0.00309 |
| AGAGCCTG | 0.049 |
| AGTCAGAC | 0.104 |
| GAAAATGC | 0.0805 |
| CCTATCAG | -0.176 |

| Sequence | PBM E-score |
| --- | --- |
| CAGATACC | -0.0463 |
| AGCCGATC | 0.0404 |
| ATCAACGG | 0.162 |
| ACTGGTTG | 0.139 |
| GCCGGGCA | -0.146 |
| AGAGATAG | -0.0187 |
| ATACTTGA | -0.195 |
| TCTAAGAA | 0.246 |
| ACAATTAC | 0.119 |
| AGACCGCG | 0.165 |
| ACTCGTAG | -0.103 |
| GCCAGCGC | -0.021 |
| AACCCCTA | -0.184 |
| CAGACTGC | -0.0137 |
| GTGAATGA | 0.0303 |
| ACTTTGGG | -0.0732 |
| AAGGTACG | -0.12 |
| ATCCACCG | -0.0297 |
| CCCTTGAA | -0.0267 |
| ACCGCTAT | -0.0161 |
| TAAGGAGA | -0.0313 |
| ATGTTTCG | 0.198 |
| CGTGGTAA | 0.0322 |
| ATTTGTGC | 0.148 |
| CCACCTGG | -0.251 |

| Sequence | PBM E-score |
| --- | --- |
| ACCTACAG | -0.00297 |
| CTCCGTGA | 0.036 |
| ACATACAG | 0.127 |
| CCAATTAC | 0.0696 |
| AATGGTAG | -0.0146 |
| GACCACAA | -0.0648 |
| GTCGCTGA | -0.0513 |
| CATCAAGG | -0.123 |
| GTACTAAC | 0.142 |
| CCGAAAAC | -0.0183 |
| AAGACTGA | -0.164 |
| GAGACTAC | -0.153 |
| AGCCCCCC | -0.421 |
| ACGGCAAA | 0.124 |
| CAATATCG | 0.163 |
| ACCCTTTA | -0.0467 |
| CGGAGCCA | -0.0948 |
| CCATTACA | 0.129 |
| GAGGGCAC | -0.143 |
| ATTATAAG | 0.186 |
| GCTTAGGA | 0.0729 |
| AAAAGCGA | 0.19 |
| GTCCTTGA | 0.0279 |
| CCTATGCG | -0.0024 |
| AACCGTCG | 0.115 |

| Sequence | PBM E-score |
| --- | --- |
| ATCCCGCA | 0.0328 |
| CATCGTGC | 0.162 |
| GCATCTTA | 0.128 |
| CGCAGAGC | -0.12 |
| CTAACTGC | -0.0676 |
| AACCCCCC | -0.448 |
| ATGCCCCC | -0.362 |
| CATAGCCC | -0.334 |
| ATAAACTG | -0.0144 |
| TAGAATAA | 0.145 |
| CCGGAAGG | -0.0832 |
| CTTTAACC | -0.0991 |
| AACTATGC | 0.0465 |
| ACGTTGAG | 0.102 |
| AAGCCAAA | 0.0472 |
| CATCTGGC | -0.0951 |
| AAATTATA | 0.237 |
| CTGGAATC | -0.0416 |
| TCATTGAA | -0.151 |
| GAGCGGGA | -0.176 |
| CATTTCGA | 0.0952 |
| CACAGGCC | -0.0883 |
| GGGCACAC | -0.172 |
| AAATGCTG | 0.186 |
| AGCGATGG | -0.0366 |

A few values from the list:
Value for CGCAGAGC under PBM E-score: -0.12
Value for CTGGAATC under PBM E-score: -0.0416
Value for TCATTGAA under PBM E-score: -0.151
Value for ATAAACTG under PBM E-score: -0.0144
Value for GCATCTTA under PBM E-score: 0.128
Value for AGCGATGG under PBM E-score: -0.0366
Value for TAGAATAA under PBM E-score: 0.145

(list continues)

| Sequence | PBM E-score |
| --- | --- |
| GAATAAGA | 0.0517 |
| CTGGCCGC | 0.0327 |
| CTCAGTAA | -0.0268 |
| AATTAAGC | 0.108 |
| CCTGAGTA | 0.187 |
| CTTGGTGA | 0.0215 |
| CGGTCTTC | -0.123 |
| GTGATCGA | 0.171 |
| GGAGTATA | 0.0846 |
| TCCGGCGA | 0.215 |
| GACCTCCA | -0.00085 |
| CCGGACAA | 0.137 |
| AACGCGGC | 0.00605 |
| GTCCCTTA | -0.0332 |
| ATTGGCCA | 0.0679 |
| TGGTGCAA | -0.318 |
| ATGAATGA | 0.13 |
| GGAAAGCC | 0.0347 |
| CCCATGAG | -0.0462 |
| GAAGATGA | 0.00518 |
| ACCGTACA | 0.0124 |
| GAGAGCTA | -0.0452 |
| AACGACGA | 0.133 |
| CTGACTAC | 0.0363 |
| ACTAAACG | 0.0217 |

| Sequence | PBM E-score |
| --- | --- |
| GTACGCCA | -0.198 |
| CTCTATAA | -0.0783 |
| ATAAGCAC | 0.208 |
| TACTGACA | 0.215 |
| CATATAGG | -0.112 |
| ACTGTGAT | -0.0504 |
| ACCGGCGA | 0.194 |
| CTGGGTGC | -0.317 |
| ACATCATC | 0.209 |
| GGCCAATA | 0.0295 |
| AAACTATC | 0.0983 |
| CTCGTAGA | -0.299 |
| AGCTTACA | 0.351 |
| CGATTCCG | -0.0339 |
| GAAGTGGA | -0.0722 |
| AAACCAGC | 0.0851 |
| TAGCGGCA | 0.0985 |
| GGGAGGAA | -0.0506 |
| AAATACCG | 0.0761 |
| CACGTCCC | -0.157 |
| AGGTTGAA | 0.0887 |
| AAGAGCTG | 0.0198 |
| TGTAGGAA | -0.0802 |
| ATGTCCTA | 0.0405 |
| ACATCCCT | 0.0496 |

| Sequence | PBM E-score |
| --- | --- |
| CCTGTTTC | -0.0261 |
| CCGAAATA | 0.253 |
| ATTGAAAG | 0.0649 |
| AGCAGTCA | -0.123 |
| TTATAGAA | 0.167 |
| CGCCACAG | -0.16 |
| AGGCCCAA | 0.0278 |
| TATCCATA | 0.232 |
| CCTGCAGC | 0.0112 |
| CCGTTACA | 0.161 |
| GCCGCATA | 0.0495 |
| AAACCGTG | 0.0205 |
| ACTTTTGG | 0.0896 |
| TATCGGGA | 0.0969 |
| AAATAGAT | 0.168 |
| AGTTAGTG | 0.212 |
| TGCCAACA | -0.0605 |
| ATTGACCC | 0.00304 |
| ACGGCGCT | -0.0736 |
| ACTTAAGG | 0.00123 |
| ATAGGTGG | -0.153 |
| ACTCAACG | -0.0251 |
